Results on 61 compounds are retold here after PubChem BioAssay AID445 (National Center for Advancing Translational Sciences (NCATS), 2006).

The nature of this assay: IkB Signaling. The conditions noted are these: ABC-DLBCL IkBa-CBG/CBR dual luciferase ratio (green luciferase fused to IkBa over red control in OCI-Ly3 lymphoma cells), 4 h. In outline: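 Curves were fitted separately to fusion (green), unfused (red) and ratio luminescence, then classed by r2, magnitude and activity. Cells: OCI-Ly3, 4 h compound plus doxycycline at 37C; 10 uM MG-132 defined full response.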
The mark [1] stands for this setting: measured here: control luc red channel unless noted.

Molecules are shown by their SMILES. The list shows a part of the results. Shown are side measurements of this screen, not its main read-out; they come without a call. Most of these compounds were active or inconclusive in the main read-out, so they are no random draw. The note in brackets gives the kind of curve behind each potency; many fits are weak.

In general, AC50 refers to the concentration giving half of the maximal activity seen.

Consider `COc1ccc2c(CNCCc3cccs3)c(C(=O)O)n(Cc3ccccc3)c2c1`, for which the half-maximal activity concentration (AC50) under setting [1] was 31.6 µM [falling, single point].

Turning to `CCOc1ccc(CCNC(=O)c2cc3c(=O)[nH]c4ccc(C)cc4c3s2)cc1OCC`, the concentration at half-maximal activity (AC50) under setting [1] was 31.6 µM [falling, single point].

On to `CCc1ccc2c(c1)NC(c1cccs1)=NC(c1ccc(F)cc1)=N2`, for which the AC50 under setting [1] was 20 µM [falling, single point].

For `COc1ccccc1C(=O)Nc1cc2c(cc1N1CCOCC1)n(C)c(=O)n2C`, under setting [1], the AC50 is 0.316 µM [rising, full curve].

Regarding `COc1cc2[nH]c(=O)n(CCCCCC(=O)N3CCN(c4cccc(C(F)(F)F)c4)CC3)c(=O)c2cc1OC`, the AC50 under setting [1] is 10 µM [falling, partial curve].

`COc1cccc(N2CCN(C(=O)c3c(C)oc4ncnc(N5CCOCC5)c34)CC2)c1`: the AC50 under setting [1] is 31.6 µM [falling, single point].

In the case of `CCn1c(=O)n(CC)c2cc(N3CCCCC3)c(NC(=O)Nc3ccccc3Cl)cc21`, under setting [1], the AC50 is 20 µM [falling, single point].

Take `CCOC(=O)Cc1ccc(NC(=O)NCc2ccc3c(c2)CCN3C(=O)CC)cc1`: the AC50 under setting [1] is 0.00631 µM [falling, full curve, poor fit].

Take `Cc1cccc(-n2c(-c3ccccc3)cn3c4c(=O)[nH]c(=O)n(C)c4nc23)c1`: the concentration at half-maximal activity (AC50) under setting [1] was 10 µM [rising, partial curve].

Consider `Cc1cc(C)cc(NC(=O)c2cc(S(=O)(=O)NCc3ccco3)ccc2F)c1`, for which, under setting [1], the concentration at half-maximal activity (AC50) is 10 µM [falling, partial curve].

With `Cc1cc(C)c(Cn2c3ccccc3c3cnn(CC(=O)N4CCCCCC4)c(=O)c32)c(C)c1`, under setting [1], the AC50 is 3.16 µM [falling, full curve].

`Cc1cccc(C)c1OCC(=O)Nc1nc(-c2ccc(Br)cc2)ns1`: under setting [1], the AC50 is 0.794 µM [falling, single point].

In the case of `CCOc1ccc(C(=O)Nc2c(C(=O)Nc3ccccc3F)oc3ccccc23)cc1OCC`, the AC50 under setting [1] is 1 µM [rising, full curve].

For `CCOC(=O)CN1C(=O)C(O)(CC(=O)c2cc(OC)ccc2OC)c2ccccc21` (configuration not stated), the AC50 under setting [1] was 0.251 µM [rising, full curve, poor fit].

For `O=C(OC1CCCCC1)c1ccc(NC(=O)c2ccco2)cc1`, the half-maximal activity concentration (AC50) under setting [1] is 12.6 µM [falling, partial curve].

Consider `CCn1c(SCC(=O)Nc2nc3ccccc3s2)nc2c(c1=O)SC(C)C2` (configuration not stated), for which the AC50 under setting [1] is 25.1 µM [falling, partial curve].

Turning to `CCc1ccc2oc(-c3ccc(NC(=O)c4ccc(OC)c(Br)c4)cc3)nc2c1`, under setting [1], the AC50 is 0.631 µM [falling, full curve].

Consider `O=C(NCCc1csc(-c2ccc(Cl)cc2)n1)c1cccs1`, for which, under setting [1], the AC50 is 25.1 µM [falling, single point].

For `CCc1ccccc1NC(=O)Cn1c(-c2nonc2N)nc2ccccc21`, the AC50 under setting [1] is 2.51 µM [falling, partial curve, poor fit].

As to `COC(=O)c1c(NC(=O)CCCOc2ccc(C(C)(C)C)cc2)sc2c1CCC(C)C2` (configuration not stated), the AC50 under setting [1] is 31.6 µM [falling, single point].

Take `O=S(=O)(Nc1ccc2oc3c(c2c1)CCCC3)c1cc(Cl)ccc1Cl`: the AC50 under setting [1] was 15.8 µM [falling, partial curve].

With `CCN(C(=O)Cn1nc(Cc2cccnc2)c2ccccc2c1=O)c1ccccc1F`, under setting [1], the AC50 was 0.158 µM [falling, full curve].

For the compound `COc1ccc(Cc2nnc(SCc3c(C)noc3C)n2C2CCCCC2)cc1OC`, the AC50 under setting [1] is 10 µM [falling, partial curve].

Take `Cc1cccc(NC(=O)C2CCN(c3nnc(-n4c(C)ccc4C)s3)CC2)c1C`: the AC50 under setting [1] was 39.8 µM [falling, single point].

For the compound `COc1ccc(C2Sc3ccccc3NC3=C2C(=O)c2ccccc23)c(OC)c1OC` (configuration not stated), the half-maximal activity concentration (AC50) under setting [1] is 3.98 µM [rising, partial curve, poor fit].

Consider `Cc1cc(C)n(-c2ccc(C(=O)OCC(=O)c3ccc(Br)s3)cc2)n1`, for which the half-maximal activity concentration (AC50) under setting [1] is 2 µM [falling, partial curve].

For the compound `Cc1ccc2nc(-c3cc(NC(=O)c4ccc5c(c4)OCCO5)ccc3Cl)oc2c1`, under setting [1], the AC50 is 3.16 µM [falling, full curve].

Consider `COc1ccc(-c2onc(C)c2C)cc1S(=O)(=O)N1c2ccccc2CC1C` (configuration not stated), for which the concentration at half-maximal activity (AC50) under setting [1] is 20 µM [falling, partial curve, poor fit].

Turning to `CC(=O)c1cc2c(cc1NC(=O)c1c(C)nn(-c3ccc(C)cc3)c1-n1cccc1)OCO2`, under setting [1], the AC50 is 0.158 µM [rising, full curve, poor fit].

With `COc1ccc(OCCn2cc(C(=O)C3CCCCC3)c3ccccc32)cc1`, the AC50 under setting [1] was 10 µM [falling, partial curve].

For the compound `COc1cccc(N2CCN(C(=O)c3cnn(C(C)(C)C)c3C3CCN(C(=O)OC(C)(C)C)CC3)CC2)c1`, the AC50 under setting [1] was 39.8 µM [falling, single point].

As for `O=C(c1ccc2c(c1)CCN2S(=O)(=O)c1ccccc1)N1CCN(c2ccc(F)cc2)CC1`, under setting [1], the AC50 was 20 µM [falling, partial curve].

On to `CC(C)(C)c1ccc(OCc2nc(-c3ccccn3)no2)c(Br)c1`, for which the AC50 under setting [1] was 12.6 µM [falling, partial curve].

As for `O=C(c1ccc2c3c(cccc13)CC2)N1CCN(c2ncccn2)CC1`, the AC50 under setting [1] was 10 µM [falling, partial curve].

In the case of `COc1ccc2c(c1)CCc1c(C(=O)Nc3c(C)nn(Cc4ccccc4Cl)c3C)noc1-2`, the AC50 under setting [1] is 3.98 µM [falling, full curve].

`Cn1c(=O)c2c(nc(NCCc3ccccc3)n2Cc2cccc(Br)c2)n(C)c1=O`: the concentration at half-maximal activity (AC50) under setting [1] is 7.94 µM [falling, partial curve].

As to `CCCCN(CC)CCCNC(=O)c1cn(CC(C)C)c(=O)c2c1c1ccccc1n2C`, under setting [1], the AC50 was 25.1 µM [falling, partial curve].

As for `Cc1ccc(CCNC(=O)c2nnc(Cc3cccc(F)c3)o2)cc1`, the concentration at half-maximal activity (AC50) under setting [1] is 39.8 µM [falling, single point].

For the compound `N#Cc1c(-c2ccccc2)no[n+]1[O-]`, the AC50 runs as follows: (measured here: IkB-luc green channel) 15.8 µM [rising, full curve]; (measured here: control luc red channel) 15.8 µM [falling, partial curve].

For `Cc1[nH]c2ccc(F)cc2c1CCNC(=O)c1cc2cc(Cl)ccc2oc1=O`, the AC50 under setting [1] was 12.6 µM [falling, partial curve, poor fit].

On to `COc1ccc(S(=O)(=O)NCC(c2cccs2)S(=O)(=O)c2ccc(C)cc2)cc1F` (configuration not stated), for which the half-maximal activity concentration (AC50) under setting [1] was 39.8 µM [falling, single point].

Take `Cc1cc(-c2ccc(N=Nc3ccc4c(S(=O)(=O)O)cc(S(=O)(=O)O)c(N)c4c3O)c(C)c2)ccc1N=Nc1ccc2c(S(=O)(=O)O)cc(S(=O)(=O)O)c(N)c2c1O`: the half-maximal activity concentration (AC50) under setting [1] is 39.8 µM [falling, single point].

Regarding `COc1ccc(Cl)cc1NS(=O)(=O)c1c(C)nc2scc(C)n2c1=O`, the AC50 under setting [1] is 39.8 µM [falling, single point].

In the case of `CCn1c(CCC(=O)Nc2nc3c(s2)CCCC3)nc2cc(S(=O)(=O)N(C)C)ccc21`, the AC50 under setting [1] was 3.16 µM [falling, full curve].

Turning to `Cc1ccc(CNC(=O)c2c[nH]c3ccc(S(=O)(=O)Nc4ccc(C(C)C)cc4)cc3c2=O)cc1`, the half-maximal activity concentration (AC50) under setting [1] was 3.16 µM [falling, full curve].

`O=C(NC1(C(F)(F)F)NC(=O)N(CCc2ccccc2)C1=O)c1ccccc1F` (configuration not stated): under setting [1], the concentration at half-maximal activity (AC50) was 39.8 µM [falling, partial curve].

For `Cc1ccc(NC(=O)CCc2c(C)nn(-c3ccc(N4CCCCC4)nn3)c2C)cc1F`, the AC50 under setting [1] is 12.6 µM [falling, partial curve].

Turning to `O=C(Nc1cccc(-c2nnc(-c3ccccc3)o2)c1)C1CCCO1` (configuration not stated), the AC50 under setting [1] is 20 µM [falling, single point].

In the case of `CCOc1ccc2nc(N(Cc3cccnc3)C(=O)c3ccc4c(c3)OCCO4)sc2c1`, the AC50 under setting [1] is 31.6 µM [falling, partial curve].

As for `COc1ccccc1CNC(=O)Cn1c(=O)ccc2cc(S(=O)(=O)N3CCC(C)CC3)ccc21`, the AC50 under setting [1] was 0.126 µM [falling, full curve, poor fit].

As to `COC(=O)c1c(C)oc2c1cc(NS(=O)(=O)c1c(C)cc(C)cc1C)c1ccccc12`, the AC50 under setting [1] is 12.6 µM [falling, partial curve].

As to `O=S(=O)(c1ccc(Cl)cc1)c1nc(-c2ccccc2Br)oc1N1CCOCC1`, the AC50 under setting [1] was 39.8 µM [falling, single point].

For `COc1ccc(N2CCN(C(=O)Cn3cnc4sc(C)c(S(=O)(=O)N5CCC(C)CC5)c4c3=O)CC2)cc1`, the AC50 under setting [1] is 10 µM [falling, partial curve].

`CCOC(=O)c1ccc(N2C(=O)c3n[nH]c(C)c3C2c2ccc(O)c(OC)c2)cc1` (configuration not stated): the AC50 under setting [1] is 10 µM [falling, partial curve].

On to `c1c2c(cc3sc(N4CCCCC4)nc13)OCCO2`, for which the AC50 under setting [1] is 3.16 µM [falling, partial curve].

Consider `Cc1ccc(-n2ncc(C(=O)N3CCN(c4ccccn4)CC3)c2C2CCN(C(=O)OC(C)(C)C)CC2)cc1C`, for which the AC50 under setting [1] is 15.8 µM [falling, partial curve].

`COc1ccc(C(=O)Nc2onc3c2CCCC3)cc1`: under setting [1], the concentration at half-maximal activity (AC50) was 39.8 µM [falling, single point].

`O=C(CSc1c2c(nc3ccc(Cl)cc13)CCCC2)N1CCN(C(=O)c2ccco2)CC1`: the concentration at half-maximal activity (AC50) under setting [1] was 7.94 µM [falling, full curve, poor fit].

As to `CCOC(=O)C1=C(C)NC(C)=C(C(=O)OC)[C@H]1c1cccc([N+](=O)[O-])c1`, under setting [1], the AC50 is 39.8 µM [falling, partial curve].

With `COc1ccc(C2=CC(c3ccc(N(C)C)cc3)n3nnnc3N2)cc1` (configuration not stated), the AC50 under setting [1] was 1 µM [rising, full curve].

For the compound `COc1cc(=O)n(C)c2cc(N(C)C)ccc12`, the AC50 under setting [1] is 15.8 µM [rising, partial curve].
